Literature values in US10226455B2 (priority 2014, dated 2019).
For at least one compound, name, drawing or mass did not settle the structure.

Test system: malaria
Conditions: mouse models of malaria; cited from earlier work

Q: With `CO[C@H]1/C=C/O[C@@]2(C)Oc3c(C)c(O)c4c(O)c(c(/C=N/N5CCN(C)CC5)c(O)c4c3C2=O)NC(=O)/C(C)=C\C=C\[C@H](C)[C@H](O)[C@@H](C)[C@@H](O)[C@@H](C)[C@H](OC(C)=O)[C@@H]1C` [rifampicin] as the compound, how does the survival read?
A: Its survival is “prolong survival”.
